# According to US11292776B2, “Small molecule inhibitors of fungal hyphae and biofilm formation” (University of Sharjah, priority 2019, dated 2022):
# Tested on: S. aureus
# Test: Antimicrobial activity / MIC against S. aureus
# Type: cell-based, methicillin-resistant Staphylococcus aureus (MRSA) LAC300
# Settings: Staphylococcus aureus, 24 h, read-out: MIC Bacteria S. aureus
# Protocol: Collections of bacterial and fungal strains were obtained from the laboratory of Dr. Ibrahim at Harbor-UCLA medical center, Torrance, Calif. The bacterial strains used in this study were the Gram-negative bacterium Escherichia coli and the Gram-Positive bacterium methicillin-resistant Staphylococcus aureus (MRSA) LAC300. All bacterial strains were cultured on sterile Luria-Bertani medium (LB). The fungal strain used in this study was C. albicans SC5314. C. albicans was inoculated into sterile yeast potato dextrose broth (YPD) and incubated for 24 h at 37° C. (This was used as an initial culture for all studies described), and incubated in two different media, Yeast Nitrogen Base (YNB) broth or Roswell Park Memorial Institute medium (RPMI-1640). […]
# The antimicrobial activity of compounds SR1-8 on agar plates, liquid broth media and MIC were measured according to modified Clinical and Laboratory Standards Institute (CLSI). […] The inhibition zones (mm) were measured by determining the diameter of the clear area. Similarly, the activity in liquid media was measured by incubating the aforementioned concentrations of the compounds into LB broth media inoculated with 10^5 CFU/mL in 96-well microplates at 37° C. for 24 h. The turbidity representing the microbial growth was measured by microplate reader (DYNEX technologies) at OD600. […]
structure (smiles),measurement,value
"CN[C@H](CC(C)C)C(=O)N[C@H]1C(=O)N[C@@H](CC(N)=O)C(=O)N[C@H]2C(=O)N[C@H]3C(=O)N[C@H](C(=O)N[C@H](C(=O)O)c4cc(O)cc(O)c4-c4cc3ccc4O)[C@H](O)c3ccc(c(Cl)c3)Oc3cc2cc(c3O[C@@H]2O[C@H](CO)[C@@H](O)[C@H](O)[C@H]2O[C@H]2C[C@](C)(N)[C@H](O)[C@H](C)O2)Oc2ccc(cc2Cl)[C@H]1O [Vancomycin, reference compound]",MIC,3 µg/mL
